Data from the supplement of paper PMC12823440, “Inhibitors supercharge kinase turnover through native proteolytic circuits” (Nature, 2025).
Where a name gives a salt, the structure may show the parent alone. Some of the results follow. The calls rarely recur for the same compound in another form.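 Kinases, fused to nanoluciferase, were expressed in K562 cells; luminescence was measured every 4 h from 2 to 18 h as percent of control (DMSO = 100%, positive control = 0%). A time point is decreased if signal falls significantly (2 sigma). Hits were called by the authors by a rule that is not shown; the count of time points alone does not decide it.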

Sequences of proteins named here, by UniProt entry; tags and fusion partners are left off. A change or cut given only in a name is not applied to a line headed by its entry.
UniProt P29317, whole entry: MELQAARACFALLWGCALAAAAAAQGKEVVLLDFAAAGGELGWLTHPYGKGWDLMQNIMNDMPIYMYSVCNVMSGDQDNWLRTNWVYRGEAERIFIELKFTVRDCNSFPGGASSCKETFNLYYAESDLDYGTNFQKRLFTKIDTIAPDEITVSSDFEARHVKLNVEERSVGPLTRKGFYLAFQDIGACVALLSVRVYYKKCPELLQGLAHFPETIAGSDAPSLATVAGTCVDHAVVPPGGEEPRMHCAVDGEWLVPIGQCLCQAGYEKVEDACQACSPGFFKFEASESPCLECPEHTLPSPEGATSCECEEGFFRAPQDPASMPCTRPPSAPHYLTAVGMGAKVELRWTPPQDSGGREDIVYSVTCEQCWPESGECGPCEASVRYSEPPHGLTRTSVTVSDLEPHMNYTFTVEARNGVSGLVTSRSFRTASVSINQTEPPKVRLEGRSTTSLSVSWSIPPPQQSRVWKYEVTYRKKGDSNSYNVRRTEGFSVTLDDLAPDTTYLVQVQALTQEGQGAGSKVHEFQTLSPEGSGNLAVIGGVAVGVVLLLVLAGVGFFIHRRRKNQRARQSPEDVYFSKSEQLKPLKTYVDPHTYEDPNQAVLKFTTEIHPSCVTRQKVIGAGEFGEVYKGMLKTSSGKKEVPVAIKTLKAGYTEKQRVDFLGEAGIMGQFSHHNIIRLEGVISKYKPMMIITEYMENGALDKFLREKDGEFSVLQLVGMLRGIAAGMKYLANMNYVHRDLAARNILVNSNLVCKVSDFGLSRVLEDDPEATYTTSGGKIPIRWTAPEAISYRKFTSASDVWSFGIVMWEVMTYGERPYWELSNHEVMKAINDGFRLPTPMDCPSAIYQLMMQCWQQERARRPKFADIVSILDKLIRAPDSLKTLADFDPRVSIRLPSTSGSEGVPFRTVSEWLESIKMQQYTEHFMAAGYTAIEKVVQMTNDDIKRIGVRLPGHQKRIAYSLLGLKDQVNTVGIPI
UniProt P21860, whole entry: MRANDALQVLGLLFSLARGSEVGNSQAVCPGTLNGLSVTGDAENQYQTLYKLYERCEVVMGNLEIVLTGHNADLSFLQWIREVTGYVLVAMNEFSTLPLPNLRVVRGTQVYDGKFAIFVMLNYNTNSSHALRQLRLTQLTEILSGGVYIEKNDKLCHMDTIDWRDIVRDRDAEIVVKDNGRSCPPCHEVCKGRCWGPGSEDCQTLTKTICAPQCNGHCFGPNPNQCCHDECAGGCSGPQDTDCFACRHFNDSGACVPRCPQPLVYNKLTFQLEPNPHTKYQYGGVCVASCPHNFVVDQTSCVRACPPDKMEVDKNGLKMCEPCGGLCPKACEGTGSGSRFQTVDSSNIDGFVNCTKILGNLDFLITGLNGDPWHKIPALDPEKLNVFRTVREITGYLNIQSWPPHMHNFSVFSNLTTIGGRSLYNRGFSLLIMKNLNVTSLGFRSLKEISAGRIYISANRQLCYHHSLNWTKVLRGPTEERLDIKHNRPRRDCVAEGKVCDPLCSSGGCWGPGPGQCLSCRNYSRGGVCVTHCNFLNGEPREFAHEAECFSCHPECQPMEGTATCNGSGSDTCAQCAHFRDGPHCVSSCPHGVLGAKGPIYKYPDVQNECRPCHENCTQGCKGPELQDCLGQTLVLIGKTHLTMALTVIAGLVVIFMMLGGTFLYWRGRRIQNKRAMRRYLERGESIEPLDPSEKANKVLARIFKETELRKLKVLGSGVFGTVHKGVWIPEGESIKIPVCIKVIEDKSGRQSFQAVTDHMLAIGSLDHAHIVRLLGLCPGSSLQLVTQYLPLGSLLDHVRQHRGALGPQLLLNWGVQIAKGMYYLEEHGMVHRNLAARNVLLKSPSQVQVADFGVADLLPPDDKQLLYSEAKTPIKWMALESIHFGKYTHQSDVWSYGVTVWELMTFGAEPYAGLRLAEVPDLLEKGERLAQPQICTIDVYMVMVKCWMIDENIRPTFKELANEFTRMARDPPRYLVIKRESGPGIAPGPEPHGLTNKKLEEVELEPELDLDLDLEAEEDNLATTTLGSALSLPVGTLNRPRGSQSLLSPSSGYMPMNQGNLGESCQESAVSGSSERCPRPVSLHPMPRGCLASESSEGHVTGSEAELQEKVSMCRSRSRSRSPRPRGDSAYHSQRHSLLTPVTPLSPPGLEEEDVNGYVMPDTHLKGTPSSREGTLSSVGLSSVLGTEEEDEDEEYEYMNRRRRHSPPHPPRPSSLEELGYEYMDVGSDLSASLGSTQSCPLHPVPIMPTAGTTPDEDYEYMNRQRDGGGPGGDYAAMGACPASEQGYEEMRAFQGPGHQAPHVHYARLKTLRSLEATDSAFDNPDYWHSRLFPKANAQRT
UniProt Q15303, whole entry R711C: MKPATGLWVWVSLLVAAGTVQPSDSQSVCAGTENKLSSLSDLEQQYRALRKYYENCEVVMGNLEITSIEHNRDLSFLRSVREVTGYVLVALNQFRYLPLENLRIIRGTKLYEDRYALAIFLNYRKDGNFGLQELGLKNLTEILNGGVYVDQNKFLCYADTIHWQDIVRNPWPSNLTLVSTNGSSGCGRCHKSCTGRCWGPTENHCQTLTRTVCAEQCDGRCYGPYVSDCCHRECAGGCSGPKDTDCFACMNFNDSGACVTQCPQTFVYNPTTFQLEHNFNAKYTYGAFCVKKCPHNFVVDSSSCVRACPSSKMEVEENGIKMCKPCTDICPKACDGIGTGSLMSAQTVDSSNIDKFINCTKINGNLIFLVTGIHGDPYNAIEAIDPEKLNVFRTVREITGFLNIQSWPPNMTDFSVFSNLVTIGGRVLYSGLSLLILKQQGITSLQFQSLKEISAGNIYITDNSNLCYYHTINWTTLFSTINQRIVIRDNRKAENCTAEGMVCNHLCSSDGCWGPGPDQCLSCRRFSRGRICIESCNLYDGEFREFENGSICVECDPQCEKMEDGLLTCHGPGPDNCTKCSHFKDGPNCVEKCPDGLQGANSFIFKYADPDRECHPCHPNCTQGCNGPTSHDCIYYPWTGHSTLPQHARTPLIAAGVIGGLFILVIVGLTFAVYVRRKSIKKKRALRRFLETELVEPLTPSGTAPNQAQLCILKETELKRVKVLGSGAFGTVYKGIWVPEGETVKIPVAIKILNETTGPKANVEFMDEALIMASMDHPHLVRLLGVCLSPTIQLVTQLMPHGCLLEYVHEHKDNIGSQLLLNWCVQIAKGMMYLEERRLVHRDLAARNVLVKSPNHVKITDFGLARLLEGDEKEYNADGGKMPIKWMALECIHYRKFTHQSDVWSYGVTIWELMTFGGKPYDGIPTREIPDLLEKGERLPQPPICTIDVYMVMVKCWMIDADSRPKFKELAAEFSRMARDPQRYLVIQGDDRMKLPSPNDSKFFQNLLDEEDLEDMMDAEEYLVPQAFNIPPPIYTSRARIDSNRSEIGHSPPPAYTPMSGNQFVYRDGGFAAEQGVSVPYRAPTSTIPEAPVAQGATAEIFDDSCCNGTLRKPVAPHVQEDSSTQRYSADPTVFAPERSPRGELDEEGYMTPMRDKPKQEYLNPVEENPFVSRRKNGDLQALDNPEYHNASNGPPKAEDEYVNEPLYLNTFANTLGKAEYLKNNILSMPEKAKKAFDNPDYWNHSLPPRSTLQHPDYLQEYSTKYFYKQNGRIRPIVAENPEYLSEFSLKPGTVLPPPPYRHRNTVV
UniProt O75460: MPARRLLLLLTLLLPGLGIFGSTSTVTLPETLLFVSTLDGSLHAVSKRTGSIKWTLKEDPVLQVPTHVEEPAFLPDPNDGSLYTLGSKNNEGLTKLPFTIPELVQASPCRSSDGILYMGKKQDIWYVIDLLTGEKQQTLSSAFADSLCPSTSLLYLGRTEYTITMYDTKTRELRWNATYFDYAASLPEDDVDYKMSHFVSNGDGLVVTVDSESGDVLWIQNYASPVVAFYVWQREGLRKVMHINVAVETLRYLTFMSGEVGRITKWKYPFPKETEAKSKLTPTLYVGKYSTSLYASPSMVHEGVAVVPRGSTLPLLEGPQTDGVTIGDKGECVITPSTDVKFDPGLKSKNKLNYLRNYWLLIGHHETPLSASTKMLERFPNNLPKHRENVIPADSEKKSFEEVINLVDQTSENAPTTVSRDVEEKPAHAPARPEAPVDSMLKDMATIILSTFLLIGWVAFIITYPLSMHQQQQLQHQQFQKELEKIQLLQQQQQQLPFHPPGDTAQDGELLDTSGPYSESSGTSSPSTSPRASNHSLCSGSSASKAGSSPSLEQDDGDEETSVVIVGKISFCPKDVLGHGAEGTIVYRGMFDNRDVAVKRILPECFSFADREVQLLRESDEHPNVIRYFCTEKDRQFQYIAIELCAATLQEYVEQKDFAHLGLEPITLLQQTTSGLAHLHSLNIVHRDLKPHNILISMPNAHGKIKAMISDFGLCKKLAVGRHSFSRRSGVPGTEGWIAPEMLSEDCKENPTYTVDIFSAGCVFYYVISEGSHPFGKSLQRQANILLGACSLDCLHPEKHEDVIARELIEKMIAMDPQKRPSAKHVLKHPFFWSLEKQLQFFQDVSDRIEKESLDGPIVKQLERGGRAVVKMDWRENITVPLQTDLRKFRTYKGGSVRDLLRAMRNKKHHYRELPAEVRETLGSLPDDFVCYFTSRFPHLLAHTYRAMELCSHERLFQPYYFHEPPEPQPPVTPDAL
UniProt P11362, whole entry, looked up: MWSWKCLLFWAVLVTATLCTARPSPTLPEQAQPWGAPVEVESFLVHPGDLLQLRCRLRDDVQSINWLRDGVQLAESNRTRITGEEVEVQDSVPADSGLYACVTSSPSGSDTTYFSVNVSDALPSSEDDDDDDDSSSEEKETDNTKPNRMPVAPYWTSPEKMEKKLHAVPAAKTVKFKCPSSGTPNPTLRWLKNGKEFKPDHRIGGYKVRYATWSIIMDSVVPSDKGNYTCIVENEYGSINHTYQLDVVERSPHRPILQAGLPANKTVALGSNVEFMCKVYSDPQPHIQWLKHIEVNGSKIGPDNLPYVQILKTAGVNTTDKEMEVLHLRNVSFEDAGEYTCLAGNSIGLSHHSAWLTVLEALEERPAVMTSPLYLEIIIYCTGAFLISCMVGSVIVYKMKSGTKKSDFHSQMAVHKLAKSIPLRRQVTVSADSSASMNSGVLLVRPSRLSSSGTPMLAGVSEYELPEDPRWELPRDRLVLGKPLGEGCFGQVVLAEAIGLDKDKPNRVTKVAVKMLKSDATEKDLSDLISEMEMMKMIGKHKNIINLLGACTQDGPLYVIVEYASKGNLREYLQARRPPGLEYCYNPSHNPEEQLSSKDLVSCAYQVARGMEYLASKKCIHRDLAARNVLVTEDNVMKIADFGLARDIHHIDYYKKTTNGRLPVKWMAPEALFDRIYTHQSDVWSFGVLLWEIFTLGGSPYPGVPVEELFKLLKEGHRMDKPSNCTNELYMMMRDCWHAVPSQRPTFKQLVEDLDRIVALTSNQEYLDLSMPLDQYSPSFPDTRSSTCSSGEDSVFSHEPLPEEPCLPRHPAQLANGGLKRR
UniProt P06241, whole entry, looked up: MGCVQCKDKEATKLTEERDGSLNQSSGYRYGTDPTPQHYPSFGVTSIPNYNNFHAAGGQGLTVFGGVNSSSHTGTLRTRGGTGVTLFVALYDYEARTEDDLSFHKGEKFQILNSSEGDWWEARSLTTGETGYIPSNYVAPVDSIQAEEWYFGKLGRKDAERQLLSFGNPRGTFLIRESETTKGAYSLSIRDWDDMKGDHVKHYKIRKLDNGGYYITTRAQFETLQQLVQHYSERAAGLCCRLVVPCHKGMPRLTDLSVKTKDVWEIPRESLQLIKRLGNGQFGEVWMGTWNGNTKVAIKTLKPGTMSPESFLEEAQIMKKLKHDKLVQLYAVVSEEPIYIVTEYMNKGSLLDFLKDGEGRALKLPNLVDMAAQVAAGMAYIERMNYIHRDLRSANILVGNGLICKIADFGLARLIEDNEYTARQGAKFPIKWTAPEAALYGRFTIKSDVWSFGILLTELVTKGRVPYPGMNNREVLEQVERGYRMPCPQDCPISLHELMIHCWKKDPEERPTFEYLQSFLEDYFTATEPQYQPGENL
UniProt P49840: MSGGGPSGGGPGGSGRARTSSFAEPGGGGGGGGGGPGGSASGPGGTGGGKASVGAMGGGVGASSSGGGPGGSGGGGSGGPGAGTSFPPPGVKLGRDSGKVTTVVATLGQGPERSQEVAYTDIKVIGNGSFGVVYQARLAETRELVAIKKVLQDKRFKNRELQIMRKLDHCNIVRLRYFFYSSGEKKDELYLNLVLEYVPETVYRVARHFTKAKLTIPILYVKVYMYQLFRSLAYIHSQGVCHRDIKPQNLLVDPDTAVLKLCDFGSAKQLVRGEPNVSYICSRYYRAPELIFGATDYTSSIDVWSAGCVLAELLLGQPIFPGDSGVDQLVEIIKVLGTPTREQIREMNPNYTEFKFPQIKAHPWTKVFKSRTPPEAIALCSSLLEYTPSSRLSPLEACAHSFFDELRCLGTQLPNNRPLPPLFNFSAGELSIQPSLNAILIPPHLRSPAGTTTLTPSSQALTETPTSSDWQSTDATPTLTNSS

Columns and labels:
Assay in all cases: kinase-Nluc reporter destabilization hit call (1 = scored as downregulated) (binary); higher = compound decreases kinase abundance
Conditions in all cases: K562; 2-18 h
EGFR = EGFR (UniProt P00533)
EGFR_G719S = EGFR_G719S (UniProt P00533)
EGFR_G719S_T790M = EGFR_G719S_T790M (UniProt P00533)
EGFR_L718V = EGFR_L718V (UniProt P00533)
EGFR_L858R = EGFR_L858R (UniProt P00533)
EGFR_L861Q = EGFR_L861Q (UniProt P00533)
EGFR_T790M = EGFR_T790M (UniProt P00533)
EPHA2 = EPHA2 (UniProt P29317)
ERBB3 = ERBB3 (UniProt P21860)
[1] = biological target: ERBB4_R711C (clone: ERBB4_mut) (UniProt Q15303)
ERN1 = ERN1 (UniProt O75460)
FGFR1 = FGFR1 (UniProt P11362)
FGFR2 = FGFR2 (UniProt P21802)
FGFR3 = FGFR3 (UniProt P22607)
FGR = FGR (UniProt P09769)
FLT3 = FLT3 (UniProt P36888)
FYN = FYN (UniProt P06241)
GSK3A = GSK3A (UniProt P49840)
HER2 = HER2 (UniProt P04626)
INSRR = INSRR (UniProt P14616)

Measured: kinase-Nluc reporter destabilization hit call

COCCNc1cc(NC(=O)N2CCCc3cc(CN4CCN(C)CC4=O)c(C=O)nc32)ncc1C#N [Roblitinib] (10 µM)
inactive: EGFR 0 | EGFR_G719S 0 | EGFR_G719S_T790M 0 | EGFR_L718V 0 | EGFR_L858R 0 | EGFR_L861Q 0 | EGFR_T790M 0 | EPHA2 = 0 | ERBB3 = 0 | [1] 0 | ERN1 = 0 | FGFR1 = 0 | FGFR2 = 0 | FGFR3 = 0 | FGR 0 | FLT3 = 0 | FYN 0 | GSK3A 0 | HER2 = 0 | INSRR 0

CN(C)CCC=C1c2ccccc2CCc2ccccc21 [Amitriptyline (hydrochloride)] (2.5 µM)
inactive: EGFR 0 | EGFR_G719S 0 | EGFR_G719S_T790M 0 | EGFR_L718V 0 | EGFR_L858R 0 | EGFR_L861Q 0 | EGFR_T790M 0 | EPHA2 = 0 | ERBB3 = 0 | [1] 0 | ERN1 = 0 | FGFR1 = 0 | FGFR2 = 0 | FGFR3 = 0 | FGR 0 | FLT3 = 0 | FYN 0 | GSK3A 0 | HER2 = 0 | INSRR 0

O=C1NC(=O)C(c2cnc3ccccn23)=C1c1cn2c3c(cc(F)cc13)CNCC2 [GSK-3 inhibitor 1] (2.5 µM)
inactive: EGFR 0 | EGFR_G719S 0 | EGFR_G719S_T790M 0 | EGFR_L718V 0 | EGFR_L858R 0 | EGFR_L861Q 0 | EGFR_T790M 0 | EPHA2 = 0 | ERBB3 = 0 | [1] 0 | ERN1 = 0 | FGFR1 = 0 | FGFR2 = 0 | FGFR3 = 0 | FGR 0 | FLT3 = 0 | FYN 0 | GSK3A 0 | HER2 = 0 | INSRR 0

Cc1cc(Nc2ncnc3ccc(-c4ccc(CNCCS(C)(=O)=O)o4)cc23)ccc1Oc1ccn2ncnc2c1 [ARRY-380 (analog )] (2.5 µM)
inactive: EGFR 0 | EGFR_G719S 0 | EGFR_G719S_T790M 0 | EGFR_L718V 0 | EGFR_L858R 0 | EGFR_L861Q 0 | EGFR_T790M 0 | EPHA2 = 0 | ERBB3 = 0 | [1] 0 | ERN1 = 0 | FGFR1 = 0 | FGFR2 = 0 | FGFR3 = 0 | FGR 0 | FLT3 = 0 | FYN 0 | GSK3A 0 | HER2 = 0 | INSRR 0

Cc1ccc(C(=O)Nc2sc(Nc3ccccc3)nc2C(N)=O)cc1 (10 µM)
inactive: EGFR 0 | EGFR_G719S 0 | EGFR_G719S_T790M 0 | EGFR_L718V 0 | EGFR_L858R 0 | EGFR_L861Q 0 | EGFR_T790M 0 | EPHA2 = 0 | ERBB3 = 0 | [1] 0 | ERN1 = 0 | FGFR1 = 0 | FGFR2 = 0 | FGFR3 = 0 | FGR 0 | FLT3 = 0 | FYN 0 | GSK3A 0 | HER2 = 0 | INSRR 0

CC(C)C[C@@H](C(=O)Nc1ccn(C[C@@H](O)CO)n1)N1CC(Oc2ccccc2Cl)=CC1=O [Dorzagliatin] (10 µM)
inactive: EGFR 0 | EGFR_G719S 0 | EGFR_G719S_T790M 0 | EGFR_L718V 0 | EGFR_L858R 0 | EGFR_L861Q 0 | EGFR_T790M 0 | EPHA2 = 0 | ERBB3 = 0 | [1] 0 | ERN1 = 0 | FGFR1 = 0 | FGFR2 = 0 | FGFR3 = 0 | FGR 0 | FLT3 = 0 | FYN 0 | GSK3A 0 | HER2 = 0 | INSRR 0

Cn1cc(-c2cnc3cnn(S(=O)(=O)c4cnc5ccc(-c6cnn(C)c6)cn45)c3c2)cn1 [Glumetinib] (10 µM)
inactive: EGFR 0 | EGFR_G719S 0 | EGFR_G719S_T790M 0 | EGFR_L718V 0 | EGFR_L858R 0 | EGFR_L861Q 0 | EGFR_T790M 0 | EPHA2 = 0 | ERBB3 = 0 | [1] 0 | ERN1 = 0 | FGFR1 = 0 | FGFR2 = 0 | FGFR3 = 0 | FGR 0 | FLT3 = 0 | FYN 0 | GSK3A 0 | HER2 = 0 | INSRR 0

O=C(Nc1nc2ccc(NC(=O)C34CC5CC(CC(C5)C3)C4)cc2s1)c1ccccc1 (10 µM)
inactive: EGFR 0 | EGFR_G719S 0 | EGFR_G719S_T790M 0 | EGFR_L718V 0 | EGFR_L858R 0 | EGFR_L861Q 0 | EGFR_T790M 0 | EPHA2 = 0 | ERBB3 = 0 | [1] 0 | ERN1 = 0 | FGFR1 = 0 | FGFR2 = 0 | FGFR3 = 0 | FGR 0 | FLT3 = 0 | FYN 0 | GSK3A 0 | HER2 = 0 | INSRR 0

CC(C)CCNC(=O)c1ccc2c(c1)nc(Nc1n[nH]c3ccc(-c4ccccc4OC(F)(F)F)cc13)n2C1CCC(O)CC1 (stereo not drawn) [IRAK inhibitor 4 (trans)] (10 µM)
inactive: EGFR 0 | EGFR_G719S 0 | EGFR_G719S_T790M 0 | EGFR_L718V 0 | EGFR_L858R 0 | EGFR_L861Q 0 | EGFR_T790M 0 | EPHA2 = 0 | ERBB3 = 0 | [1] 0 | ERN1 = 0 | FGFR1 = 0 | FGFR2 = 0 | FGFR3 = 0 | FGR 0 | FLT3 = 0 | FYN 0 | GSK3A 0 | HER2 = 0 | INSRR 0

COc1c(Nc2cc(C)[nH]n2)nc(Sc2ccc(S(=O)(=O)Cc3cccc([N+](=O)[O-])c3F)cc2F)nc1N1CCCCC1 [Centrinone-B] (2.5 µM)
inactive: EGFR 0 | EGFR_G719S 0 | EGFR_G719S_T790M 0 | EGFR_L718V 0 | EGFR_L858R 0 | EGFR_L861Q 0 | EGFR_T790M 0 | EPHA2 = 0 | ERBB3 = 0 | [1] 0 | ERN1 = 0 | FGFR1 = 0 | FGFR2 = 0 | FGFR3 = 0 | FGR 0 | FLT3 = 0 | FYN 0 | GSK3A 0 | HER2 = 0 | INSRR 0

CNc1nc(Nc2cn(C(C)(C)C#N)nc2C)ncc1C(F)(F)F (10 µM)
inactive: EGFR 0 | EGFR_G719S 0 | EGFR_G719S_T790M 0 | EGFR_L718V 0 | EGFR_L858R 0 | EGFR_L861Q 0 | EGFR_T790M 0 | EPHA2 = 0 | ERBB3 = 0 | [1] 0 | ERN1 = 0 | FGFR1 = 0 | FGFR2 = 0 | FGFR3 = 0 | FGR 0 | FLT3 = 0 | FYN 0 | GSK3A 0 | HER2 = 0 | INSRR 0

O=C1NC(=Nc2c(Cl)cccc2Cl)S/C1=C\c1ccc2nccnc2c1 (2.5 µM)
inactive: EGFR 0 | EGFR_G719S 0 | EGFR_G719S_T790M 0 | EGFR_L718V 0 | EGFR_L858R 0 | EGFR_L861Q 0 | EGFR_T790M 0 | EPHA2 = 0 | ERBB3 = 0 | [1] 0 | ERN1 = 0 | FGFR1 = 0 | FGFR2 = 0 | FGFR3 = 0 | FGR 0 | FLT3 = 0 | FYN 0 | GSK3A 0 | HER2 = 0 | INSRR 0

Nc1nccc(Oc2ccc(NC(=O)c3c[nH]cc(-c4ccc(F)cc4)c3=O)cc2F)c1Cl (10 µM)
active: HER2 = 1
inactive: EGFR 0 | EGFR_G719S 0 | EGFR_G719S_T790M 0 | EGFR_L718V 0 | EGFR_L858R 0 | EGFR_L861Q 0 | EGFR_T790M 0 | EPHA2 = 0 | ERBB3 = 0 | [1] 0 | ERN1 = 0 | FGFR1 = 0 | FGFR2 = 0 | FGFR3 = 0 | FGR 0 | FLT3 = 0 | FYN 0 | GSK3A 0 | INSRR 0

Two consecutive compounds from above, for reference:
COCCNc1cc(NC(=O)N2CCCc3cc(CN4CCN(C)CC4=O)c(C=O)nc32)ncc1C#N [Roblitinib] (10 µM)
inactive: EGFR 0 | EGFR_G719S 0 | EGFR_G719S_T790M 0 | EGFR_L718V 0 | EGFR_L858R 0 | EGFR_L861Q 0 | EGFR_T790M 0 | EPHA2 = 0 | ERBB3 = 0 | [1] 0 | ERN1 = 0 | FGFR1 = 0 | FGFR2 = 0 | FGFR3 = 0 | FGR 0 | FLT3 = 0 | FYN 0 | GSK3A 0 | HER2 = 0 | INSRR 0

CN(C)CCC=C1c2ccccc2CCc2ccccc21 [Amitriptyline (hydrochloride)] (2.5 µM)
inactive: EGFR 0 | EGFR_G719S 0 | EGFR_G719S_T790M 0 | EGFR_L718V 0 | EGFR_L858R 0 | EGFR_L861Q 0 | EGFR_T790M 0 | EPHA2 = 0 | ERBB3 = 0 | [1] 0 | ERN1 = 0 | FGFR1 = 0 | FGFR2 = 0 | FGFR3 = 0 | FGR 0 | FLT3 = 0 | FYN 0 | GSK3A 0 | HER2 = 0 | INSRR 0

More entries:

O=C(N[C@@H](C1CC1)C(F)(F)F)c1cc(-c2cnn3cc(-c4ccc(F)cc4)cnc23)cs1 (10 µM)
inactive: EGFR 0 | EGFR_G719S 0 | EGFR_G719S_T790M 0 | EGFR_L718V 0 | EGFR_L858R 0 | EGFR_L861Q 0 | EGFR_T790M 0 | EPHA2 = 0 | ERBB3 = 0 | [1] 0 | ERN1 = 0 | FGFR1 = 0 | FGFR2 = 0 | FGFR3 = 0 | FGR 0 | FLT3 = 0 | GSK3A 0 | HER2 = 0 | INSRR 0
active: FYN 1

COc1ccc(/C=C/C(=O)C2(C(=O)/C=C/c3ccc(OC)c(OC)c3)CCCCC2)cc1OC (2.5 µM)
inactive: EGFR 0 | EGFR_G719S 0 | EGFR_G719S_T790M 0 | EGFR_L718V 0 | EGFR_L858R 0 | EGFR_L861Q 0 | EGFR_T790M 0 | EPHA2 = 0 | ERBB3 = 0 | [1] 0 | ERN1 = 0 | FGFR1 = 0 | FGFR2 = 0 | FGFR3 = 0 | FGR 0 | FLT3 = 0 | FYN 0 | GSK3A 0 | HER2 = 0 | INSRR 0

COc1cc(N2CCOCC2)ccc1Nc1ncc(Cl)c(Nc2ccccc2NS(C)(=O)=O)n1 (2.5 µM)
inactive: EGFR 0 | EGFR_G719S 0 | EGFR_G719S_T790M 0 | EGFR_L718V 0 | EGFR_L858R 0 | EGFR_L861Q 0 | EGFR_T790M 0 | EPHA2 = 0 | ERBB3 = 0 | [1] 0 | ERN1 = 0 | FGFR1 = 0 | FGFR2 = 0 | FGFR3 = 0 | FGR 0 | FLT3 = 0 | FYN 0 | GSK3A 0 | HER2 = 0 | INSRR 0

O=C(NCc1cccc(O)c1)Nc1nc(-c2ccncc2)cs1 (10 µM)
inactive: EGFR 0 | EGFR_G719S 0 | EGFR_G719S_T790M 0 | EGFR_L718V 0 | EGFR_L858R 0 | EGFR_L861Q 0 | EGFR_T790M 0 | EPHA2 = 0 | ERBB3 = 0 | [1] 0 | ERN1 = 0 | FGFR1 = 0 | FGFR2 = 0 | FGFR3 = 0 | FGR 0 | FLT3 = 0 | FYN 0 | GSK3A 0 | HER2 = 0 | INSRR 0
